# Reference: article PMC6908726
# Sequences of proteins named here, by UniProt entry; tags and fusion partners are left off.
# UniProt O88597: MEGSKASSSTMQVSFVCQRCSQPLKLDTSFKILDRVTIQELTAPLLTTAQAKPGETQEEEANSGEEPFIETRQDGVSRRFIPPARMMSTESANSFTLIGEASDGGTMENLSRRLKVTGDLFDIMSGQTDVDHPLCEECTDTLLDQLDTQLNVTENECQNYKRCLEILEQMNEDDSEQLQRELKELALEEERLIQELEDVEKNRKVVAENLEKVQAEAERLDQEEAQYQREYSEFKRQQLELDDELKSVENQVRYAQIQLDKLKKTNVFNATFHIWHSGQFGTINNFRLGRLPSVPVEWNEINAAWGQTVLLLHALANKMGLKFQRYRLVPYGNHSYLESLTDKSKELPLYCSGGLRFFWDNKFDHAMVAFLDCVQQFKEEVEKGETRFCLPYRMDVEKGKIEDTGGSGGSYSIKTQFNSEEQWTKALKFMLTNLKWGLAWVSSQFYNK
# UniProt P22366: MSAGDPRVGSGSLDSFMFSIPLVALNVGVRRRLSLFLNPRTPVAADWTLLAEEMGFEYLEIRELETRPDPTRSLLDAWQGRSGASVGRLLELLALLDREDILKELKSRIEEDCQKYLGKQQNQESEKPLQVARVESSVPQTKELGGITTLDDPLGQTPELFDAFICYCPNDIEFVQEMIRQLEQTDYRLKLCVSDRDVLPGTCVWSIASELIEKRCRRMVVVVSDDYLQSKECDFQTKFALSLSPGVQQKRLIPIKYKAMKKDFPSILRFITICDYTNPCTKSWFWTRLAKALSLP
# No constants are given. Whether binding was seen depends on the method and setting. In cells and extracts the contact can be indirect. Some binding calls cover weakened binding; strength is not graded here.
# B1: UVRAG (wild-type, endogenous mouse) (protein, UniProt Q8K245 1-698)
# chain: MSSCASLGGPVPLPPPGPSAALTSGAPARALHVELPSQQRRLRHLRNIAARNIVNRNGHQLLDTYFTLHLCDNEKIFKEFYRSEVIKNSLNPTWRSLDFGIMPDRLDTSVSCFVVKIWGGKEEAFQLLIEWKVYLDGLKYLGQQIHARNQNEIIFGLNDGYYGAPCEHKGHPNAQKNLLQVDQNCVRNSYDVFSLLRLHRAQCAIKQTQVTVQRLGKEIEEKLRLTSTSNELKKESECLRLKILVLRNELERQKKALGREVAFLHKQQMALQDKGSAFSTEHGKLQLQKDSLSELRKECTAKRELFLKTNAQLTIRCRQLLSELSYIYPIDLNENKDYFVCGVKLPNSEDFQAKDDGSIAVALGYTAHLVSMISFFLQVPLRYPIIHKGSRSTIKDNINDKLTEKEREFPLYPKGGEKLQFDYGVYLLNKNIAQLRYQHGLGTPDLRQTLPNLKNFMEHGLMVRCDRHHISNAIPVPKRQSSTFGGADGGFSAGIPSPDKVHRKRASSENERLQYKTPPPSYNSALTQPGVAMPTSGDSERKVAPLSSSLDTSLDFSKENKKAGVDLGSSVSGDHGNSDSGQEQGEALPGHLAAVNGTALPSEQAGPAGTLLPGSCHPAPSAELCCAVEQAEEIIGLEATGFTSGDQLEALSCIPVDSAVAVECDEQVLGEFEEFSRRIYALSENVSSFRRPRRSSDK
# B2: TRAF6 (enzyme, UniProt P70196 1-530)
# chain: MSLLNCENSCGSSQSSSDCCAAMAASCSAAVKDDSVSGSASTGNLSSSFMEEIQGYDVEFDPPLESKYECPICLMALREAVQTPCGHRFCKACIIKSIRDAGHKCPVDNEILLENQLFPDNFAKREILSLTVKCPNKGCLQKMELRHLEDHQVHCEFALVNCPQCQRPFQKCQVNTHIIEDCPRRQVSCVNCAVSMAYEEKEIHDQSCPLANIICEYCGTILIREQMPNHYDLDCPTAPIPCTFSVFGCHEKMQRNHLARHLQENTQLHMRLLAQAVHNVNLALRPCDAASPSRGCRPEDPNYEETIKQLESRLVRQDHQIRELTAKMETQSMYVGELKRTIRTLEDKVAEMEAQQCNGIYIWKIGNFGMHLKSQEEERPVVIHSPGFYTGRPGYKLCMRLHLQLPTAQRCANYISLFVHTMQGEYDSHLPWPFQGTIRLTILDQSEALIRQNHEEVMDAKPELLAFQRPTIPRNPKGFGYVTFMHLEALRQGTFIKDDTLLVRCEVSTRFDMGGLRKEGFQPRSTDAGV
# B3: TRIF (protein, UniProt Q80UF7 1-732)
# chain: MDNPGPSLRGAFGILGALERDRLTHLKHKLGSLCSGSQESKLLHAMVLLALGQDTEARVSLESLKMNTVAQLVAHQWADMETTEGPEEPPDLSWTVARLYHLLAEENLCPASTRDMAYQVALRDFASQGDHQLGQLQNEAWDRCSSDIKGDPSGFQPLHSHQGSLQPPSASPAVTRSQPRPIDTPDWSWGHTLHSTNSTASLASHLEISQSPTLAFLSSHHGTHGPSKLCNTPLDTQEPQLVPEGCQEPEEISWPPSVETSVSLGLPHEISVPEVSPEEASPILPDALAAPDTSVHCPIECTELSTNSRSPLTSTTESVGKQWPITSQRSPQVPVGDDSLQNTTSSSPPAQPPSLQASPKLPPSPLSSASSPSSYPAPPTSTSPVLDHSETSDQKFYNFVVIHARADEQVALRIREKLETLGVPDGATFCEEFQVPGRGELHCLQDAIDHSGFTILLLTASFDCSLSLHQINHALMNSLTQSGRQDCVIPLLPLECSQAQLSPDTTRLLHSIVWLDEHSPIFARKVANTFKTQKLQAQRVRWKKAQEARTLKEQSIQLEAERQNVAAISAAYTAYVHSYRAWQAEMNKLGVAFGKNLSLGTPTPSWPGCPQPIPSHPQGGTPVFPYSPQPPSFPQPPCFPQPPSFPQPPSFPLPPVSSPQSQSFPSASSPAPQTPGPQPLIIHHAQMVQLGVNNHMWGHTGAQSSDDKTECSENPCMGPLTDQGEPLLETPE
# Molecular target: Beclin1 (mouse (endogenous in liver and BMDM)) (UniProt O88597)
# Assay: co-IP; BMDMs from iUVRAG^FS mice, PBS or LPS (100 ng/ml) for 4 h, with or without Dox; IP with anti-Beclin1; lysis in 20 mM Tris pH 7.5, 150 mM NaCl, 1 mM EDTA, 2% Triton X-100; western blot
row,binding,Molecule
1,binds,MyD88 (from UniProt P22366 1-296)
2,binds,B1
3,binds,B2
4,binds,B3

# Molecular target: Beclin1 (mouse (endogenous in liver and BMDM)) (UniProt O88597)
# Assay: co-IP; livers of LPS-treated iUVRAG^FS mice (Supplementary Fig. 2b, not shown); told only as 'similar results'
row,binding,Molecule
1,binds,MyD88 (from UniProt P22366 1-296)
2,binds,B1
3,binds,B2
4,binds,B3
